Experimental findings from PMC7586746, “A putative nuclear copper chaperone promotes plant immunity in Arabidopsis” (Journal of Experimental Botany, 2020) are described below.

The chains behind the UniProt entries cited, without tags or fusion partners. Where a name states a change or a piece, a line headed by the entry shows the natural chain unless it says otherwise.
UniProt A0A7G7X469: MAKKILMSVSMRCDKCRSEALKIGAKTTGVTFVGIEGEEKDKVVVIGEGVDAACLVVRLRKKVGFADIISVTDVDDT

No constants are given. Whether binding was seen depends on the method and setting. Binding can be weak; no strength is given. For part of these data: Sequences can lack the tags named with a protein. For part of these data: In cells and extracts the contact can be indirect.

Experiment [1] addresses T1, TGA2 N-terminal domain fused with the C-terminal half of YFP (UniProt P43273).
T1 sequence: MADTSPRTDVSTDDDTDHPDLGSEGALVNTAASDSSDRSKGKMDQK
Description: split reporter; BiFC: Y^N and Y^C fusions (pSPYNE-35S / pSPYCE-35S) co-expressed with TBSV P19 by agroinfiltration in N. benthamiana leaves, YFP read by confocal microscopy at 2 dpi; some leaves treated with buffer or SA.

Experiment [2] has as its target T2, TGA2 fused with the C-terminal half of YFP (UniProt P43273).
T2 sequence: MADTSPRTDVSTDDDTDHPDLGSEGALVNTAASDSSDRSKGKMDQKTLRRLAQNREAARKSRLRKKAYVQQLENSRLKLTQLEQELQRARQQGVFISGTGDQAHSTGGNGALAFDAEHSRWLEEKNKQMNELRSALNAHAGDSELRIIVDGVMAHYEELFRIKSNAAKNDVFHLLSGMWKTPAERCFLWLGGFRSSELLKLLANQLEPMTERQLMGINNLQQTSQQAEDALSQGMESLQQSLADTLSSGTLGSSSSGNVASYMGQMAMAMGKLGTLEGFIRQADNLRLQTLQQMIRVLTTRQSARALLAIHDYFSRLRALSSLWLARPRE
Described as above.

In another experiment the target is T3, TGA2-Flag (UniProt P43273).
T3 sequence: T2 sequence
Put plainly: co-IP; TGA2-Flag co-expressed with GFP fusions in N. benthamiana leaves, 2 dpi; anti-Flag M2 affinity gel, 4 °C, 5 h; 0.1% Triton X-100, 10% glycerol, 25 mM Tris–HCl pH 7.5, 200 mM NaCl, 1 mM EDTA, 10 mM DTT; blots with anti-Flag and anti-GFP.

Another experiment deals with T4, GST–NPR1 (UniProt P93002 1-593).
T4 construct: NPR1 (non-expressor of pathogenesis-related gene 1), cloned into pGEX-4T-1; source: E. coli BL21, purified
T4 sequence (looked up): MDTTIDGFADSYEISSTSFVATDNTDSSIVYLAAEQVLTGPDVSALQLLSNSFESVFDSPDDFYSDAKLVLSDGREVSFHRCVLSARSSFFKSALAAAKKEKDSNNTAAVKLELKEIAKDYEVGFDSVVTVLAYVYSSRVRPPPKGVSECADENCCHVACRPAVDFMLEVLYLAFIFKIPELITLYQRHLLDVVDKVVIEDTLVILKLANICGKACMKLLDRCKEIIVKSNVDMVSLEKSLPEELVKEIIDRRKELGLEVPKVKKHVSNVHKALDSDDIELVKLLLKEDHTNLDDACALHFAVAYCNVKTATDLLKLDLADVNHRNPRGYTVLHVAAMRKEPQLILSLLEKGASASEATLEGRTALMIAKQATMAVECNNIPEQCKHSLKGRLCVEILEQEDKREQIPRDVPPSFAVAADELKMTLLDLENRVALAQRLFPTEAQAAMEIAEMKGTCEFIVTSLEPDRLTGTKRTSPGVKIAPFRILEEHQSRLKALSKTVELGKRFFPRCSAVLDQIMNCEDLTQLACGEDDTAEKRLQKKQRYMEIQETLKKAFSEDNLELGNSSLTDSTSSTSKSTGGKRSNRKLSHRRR
Put plainly: pull-down; GST pull-down in vitro of His-CCP and His-TGA2 added together, in the presence of Cu^2+ (Supplementary Fig. S13); both purified.

Another experiment has as its target T5, GST–TGA2 (UniProt P43273).
T5 sequence: T2 sequence
Description: pull-down; 2 μg GST bait and 2 μg His prey with GST beads in 500 μl of 50 mM Tris–HCl pH 6.8, 150 mM NaCl, 0.2% glycerol, 5 mM DTT, 0.6% Triton X-100, 4 °C, 6 h; blots with anti-His and anti-GST; both purified.

With “CCP (copper chaperone induced by pathogens) fused to a half of sYFP for BiFC (from UniProt A0A7G7X469)”, the binding result in experiment [1] and in experiment [2] was “binds” in each case.

Take “CCP^mCBS fused to a half of sYFP for BiFC (Arabidopsis thaliana)”: in experiment [2], the binding result is “no binding”.

Consider CCP–GFP (Arabidopsis thaliana), for which the binding result with TGA2-Flag was “binds”.

As to His-CCP (from UniProt A0A7G7X469), the binding entry in the experiment with GST–NPR1 and in the experiment with GST–TGA2 was “binds” in each case.
